Experimental data reported in doi:10.1101/2021.03.25.21253623.
No constants are given. Whether binding was seen depends on the method and setting. Binding seen in cells or lysates may run through a third protein. Some entries that bind do so weakly or less than the wild type.

Sequences of proteins named here, by UniProt entry; tags and fusion partners are left off. A change or cut given only in a name is not applied to a line headed by its entry.
UniProt Q5S006, whole entry: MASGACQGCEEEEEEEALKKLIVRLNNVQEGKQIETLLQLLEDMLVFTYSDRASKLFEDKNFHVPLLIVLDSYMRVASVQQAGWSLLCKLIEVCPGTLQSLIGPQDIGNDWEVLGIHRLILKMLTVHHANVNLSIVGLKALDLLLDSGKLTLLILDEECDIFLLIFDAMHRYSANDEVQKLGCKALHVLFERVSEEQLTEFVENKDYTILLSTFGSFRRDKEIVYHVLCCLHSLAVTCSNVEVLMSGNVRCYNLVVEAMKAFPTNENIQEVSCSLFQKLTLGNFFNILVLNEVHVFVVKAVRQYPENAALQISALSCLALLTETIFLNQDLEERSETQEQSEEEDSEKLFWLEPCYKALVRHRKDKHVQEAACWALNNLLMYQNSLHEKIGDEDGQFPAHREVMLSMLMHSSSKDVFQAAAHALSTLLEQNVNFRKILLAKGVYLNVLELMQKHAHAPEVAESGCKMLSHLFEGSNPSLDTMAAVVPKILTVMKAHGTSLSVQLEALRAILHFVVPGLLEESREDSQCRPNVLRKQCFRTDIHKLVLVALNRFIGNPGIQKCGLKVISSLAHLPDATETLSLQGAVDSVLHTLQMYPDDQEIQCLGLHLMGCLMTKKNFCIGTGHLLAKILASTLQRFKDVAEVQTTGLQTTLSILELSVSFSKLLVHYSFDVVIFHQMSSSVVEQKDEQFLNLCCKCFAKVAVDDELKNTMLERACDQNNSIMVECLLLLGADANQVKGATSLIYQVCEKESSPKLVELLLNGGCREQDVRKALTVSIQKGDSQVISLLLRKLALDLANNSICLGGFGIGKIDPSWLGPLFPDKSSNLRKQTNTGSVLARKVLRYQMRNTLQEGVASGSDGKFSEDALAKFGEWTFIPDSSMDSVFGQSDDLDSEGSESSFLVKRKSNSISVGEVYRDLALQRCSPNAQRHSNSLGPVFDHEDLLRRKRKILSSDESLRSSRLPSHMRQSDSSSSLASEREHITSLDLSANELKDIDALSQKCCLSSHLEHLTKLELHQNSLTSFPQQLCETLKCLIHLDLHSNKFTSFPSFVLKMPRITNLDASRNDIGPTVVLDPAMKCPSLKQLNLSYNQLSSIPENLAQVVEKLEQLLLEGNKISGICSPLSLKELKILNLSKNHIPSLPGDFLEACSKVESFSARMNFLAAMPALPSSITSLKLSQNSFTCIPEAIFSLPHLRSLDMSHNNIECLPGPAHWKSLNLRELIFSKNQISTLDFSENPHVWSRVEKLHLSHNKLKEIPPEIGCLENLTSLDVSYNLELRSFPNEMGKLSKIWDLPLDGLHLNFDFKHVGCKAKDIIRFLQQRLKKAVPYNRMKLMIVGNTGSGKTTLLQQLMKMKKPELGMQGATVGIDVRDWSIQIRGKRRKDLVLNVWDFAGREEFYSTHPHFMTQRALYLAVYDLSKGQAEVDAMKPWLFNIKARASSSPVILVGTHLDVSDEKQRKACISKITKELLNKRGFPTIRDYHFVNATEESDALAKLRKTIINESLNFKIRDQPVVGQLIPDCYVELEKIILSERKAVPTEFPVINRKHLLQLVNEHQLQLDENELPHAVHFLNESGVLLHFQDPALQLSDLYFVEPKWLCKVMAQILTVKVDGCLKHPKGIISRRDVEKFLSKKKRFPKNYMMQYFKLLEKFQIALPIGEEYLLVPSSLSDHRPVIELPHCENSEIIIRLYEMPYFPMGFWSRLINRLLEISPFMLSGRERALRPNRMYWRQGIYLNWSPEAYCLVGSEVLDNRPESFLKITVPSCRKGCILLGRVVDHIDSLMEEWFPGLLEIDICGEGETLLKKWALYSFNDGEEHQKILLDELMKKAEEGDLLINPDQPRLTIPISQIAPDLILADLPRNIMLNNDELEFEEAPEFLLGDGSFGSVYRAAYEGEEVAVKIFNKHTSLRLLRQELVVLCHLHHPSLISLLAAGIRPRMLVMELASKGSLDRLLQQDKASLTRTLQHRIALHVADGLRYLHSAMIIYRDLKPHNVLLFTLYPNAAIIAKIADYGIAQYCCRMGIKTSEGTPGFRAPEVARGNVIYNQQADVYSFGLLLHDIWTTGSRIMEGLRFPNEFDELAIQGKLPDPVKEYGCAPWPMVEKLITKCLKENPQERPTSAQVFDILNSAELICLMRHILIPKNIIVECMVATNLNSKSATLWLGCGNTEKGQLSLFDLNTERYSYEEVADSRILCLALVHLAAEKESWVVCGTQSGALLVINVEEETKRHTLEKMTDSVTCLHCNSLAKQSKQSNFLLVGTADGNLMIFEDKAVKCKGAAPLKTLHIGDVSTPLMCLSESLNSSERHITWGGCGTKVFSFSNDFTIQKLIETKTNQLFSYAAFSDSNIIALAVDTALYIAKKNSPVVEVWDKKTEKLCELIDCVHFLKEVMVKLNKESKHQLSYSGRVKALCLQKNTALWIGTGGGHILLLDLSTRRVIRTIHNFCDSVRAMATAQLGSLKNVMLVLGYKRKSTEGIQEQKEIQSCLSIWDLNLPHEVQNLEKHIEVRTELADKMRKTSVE
UniProt Q9HC29, whole entry: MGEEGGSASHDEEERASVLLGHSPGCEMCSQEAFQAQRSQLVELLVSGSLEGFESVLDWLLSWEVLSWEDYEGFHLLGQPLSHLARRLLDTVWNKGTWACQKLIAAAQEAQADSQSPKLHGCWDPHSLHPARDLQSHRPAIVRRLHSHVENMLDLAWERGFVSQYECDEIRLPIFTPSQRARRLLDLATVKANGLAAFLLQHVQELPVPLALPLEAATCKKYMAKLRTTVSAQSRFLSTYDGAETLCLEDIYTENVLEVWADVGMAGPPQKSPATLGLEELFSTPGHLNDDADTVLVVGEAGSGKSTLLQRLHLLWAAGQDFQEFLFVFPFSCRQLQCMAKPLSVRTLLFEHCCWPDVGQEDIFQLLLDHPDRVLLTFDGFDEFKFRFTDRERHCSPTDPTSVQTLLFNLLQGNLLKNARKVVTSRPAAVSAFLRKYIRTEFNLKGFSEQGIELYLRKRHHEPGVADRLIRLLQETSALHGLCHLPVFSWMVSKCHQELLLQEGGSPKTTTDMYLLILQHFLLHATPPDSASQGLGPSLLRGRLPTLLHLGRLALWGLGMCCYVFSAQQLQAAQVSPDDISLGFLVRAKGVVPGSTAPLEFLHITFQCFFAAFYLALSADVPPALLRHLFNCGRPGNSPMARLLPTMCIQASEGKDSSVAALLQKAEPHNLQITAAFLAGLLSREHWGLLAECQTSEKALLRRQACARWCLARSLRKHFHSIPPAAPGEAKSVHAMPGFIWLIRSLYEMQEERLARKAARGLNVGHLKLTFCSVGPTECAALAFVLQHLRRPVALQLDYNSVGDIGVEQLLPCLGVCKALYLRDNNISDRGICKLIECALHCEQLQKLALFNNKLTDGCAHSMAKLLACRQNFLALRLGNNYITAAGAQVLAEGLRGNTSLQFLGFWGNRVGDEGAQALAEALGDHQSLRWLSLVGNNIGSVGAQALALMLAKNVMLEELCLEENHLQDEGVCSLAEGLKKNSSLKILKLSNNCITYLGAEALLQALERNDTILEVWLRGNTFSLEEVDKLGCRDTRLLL

Tests used:
[1] = target: LRRK2 N551K/R1398H double mutant (mouse (endogenous in RAW264.7)) (UniProt Q5S006); assay: co-IP
[2] = target: LRRK2 wild-type (mouse (endogenous in RAW264.7)) (UniProt Q5S006); assay: co-IP

- binding [1]: binds
- binding [2]: binds
Substance: FLAG-tagged NOD2 wild-type (from UniProt Q9HC29 1-1040)
